Data as given in PubChem BioAssay AID1259405 (NCATS, 2018)
Assay: 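Silenced genes that increase secreted GFP made by CHO cells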 (primary screen). Cell system: Chinese hamster CHO-K1 ovary cells with stable secreted eGFP expression. Knock-down reagent: single siRNA against mouse genes, 0.8 pmol siRNA per well (2 µl of 400 nM stock). Time to read-out: 3 days. Detection: 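Per-well intracellular GFP measured by laser scanning cytometry, plus viability from ATP luminescence, each relative to plate median of non-targeting control wells, in %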. Scale: GFP, % of control: higher = more GFP per well, higher productivity; viability (ATP), % of control: higher = more viable cells (more ATP). Hit rule: 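a knock-down is called active if GFP reaches 120% or more of non-targeting control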.
Shown is one part, drawn at random, of about 50,000 deposited reagents. Over the whole deposit, about 4,000 (8%) were called active. 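Mouse siRNA library applied to hamster cells; one well for each siRNA.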 The numbers tell different reagents against one gene apart.

For Odf4 #1, what was measured?
GFP, % of control: 68.3; viability (ATP), % of control: 66; Outcome: inactive

With Odf4 #2, what does the deposit list?
GFP, % of control: 159; viability (ATP), % of control: 52.5; Outcome: active

Which result is listed for Odf4 #3?
GFP, % of control: 68.3; viability (ATP), % of control: 80.4; Outcome: inactive

Which result is listed for E2f7 #1?
GFP, % of control: 77.9; viability (ATP), % of control: 88.4; Outcome: inactive

How did the screen score E2f7 #2?
GFP, % of control: 80.4; viability (ATP), % of control: 79.5; Outcome: inactive

For Dnajc17 #1, what does the deposit list?
GFP, % of control: 55.3; viability (ATP), % of control: 46.3; Outcome: inactive

Which result is listed for Dnajc17 #2?
GFP, % of control: 73.9; viability (ATP), % of control: 96.3; Outcome: inactive

Which result is listed for Dnajc17 #3?
GFP, % of control: 59.1; viability (ATP), % of control: 54.4; Outcome: inactive

For Clec2d #1, how do the results read?
GFP, % of control: 15; viability (ATP), % of control: 23.2; Outcome: inactive

Which result is listed for Clec2d #2?
GFP, % of control: 60.9; viability (ATP), % of control: 45.4; Outcome: inactive

What did the screen give for Clec2d #3?
GFP, % of control: 117; viability (ATP), % of control: 104; Outcome: inactive

Which result is listed for Or1e30 #1?
GFP, % of control: 65.6; viability (ATP), % of control: 53.1; Outcome: inactive

Which result is listed for Or1e30 #2?
GFP, % of control: 102; viability (ATP), % of control: 35.4; Outcome: inactive

With Or1e30 #3, how do the results read?
GFP, % of control: 56.5; viability (ATP), % of control: 115; Outcome: inactive

What is on record for Thbs3 #1?
GFP, % of control: 153; viability (ATP), % of control: 131; Outcome: active

How did the screen score Thbs3 #2?
GFP, % of control: 73.6; viability (ATP), % of control: 73.3; Outcome: inactive

Records listed so far whose target name starts with E or e:
E2f7 #1 → GFP, % of control: 77.9; viability (ATP), % of control: 88.4; Outcome: inactive
E2f7 #2 → GFP, % of control: 80.4; viability (ATP), % of control: 79.5; Outcome: inactive

The results go on:
For Tal1 #1, what does the deposit list?
GFP, % of control: 47; viability (ATP), % of control: 72.7; Outcome: inactive

Which result is listed for Tal1 #2?
GFP, % of control: 55.5; viability (ATP), % of control: 64.6; Outcome: inactive

For Tal1 #3, what does the deposit list?
GFP, % of control: 74.1; viability (ATP), % of control: 76.8; Outcome: inactive

Which result is listed for Irf9 #1?
GFP, % of control: 77.8; viability (ATP), % of control: 77.9; Outcome: inactive

For Irf9 #2, what does the deposit list?
GFP, % of control: 72.3; viability (ATP), % of control: 74.1; Outcome: inactive

With Irf9 #3, what was measured?
GFP, % of control: 99.8; viability (ATP), % of control: 125; Outcome: inactive

With Sdhc #1, what was measured?
GFP, % of control: 157; viability (ATP), % of control: 73.9; Outcome: active

What is on record for Sdhc #2?
GFP, % of control: 114; viability (ATP), % of control: 74.2; Outcome: inactive

What did the screen give for Sdhc #3?
GFP, % of control: 80.4; viability (ATP), % of control: 92.6; Outcome: inactive

What is on record for Wfdc15a #1?
GFP, % of control: 62.4; viability (ATP), % of control: 55.3; Outcome: inactive

With Wfdc15a #2, what was measured?
GFP, % of control: 98.6; viability (ATP), % of control: 50.7; Outcome: inactive

How did the screen score Wfdc15a #3?
GFP, % of control: 94.7; viability (ATP), % of control: 102; Outcome: inactive
